Here are results for one substance from publication PMC10410063.

The chains behind the UniProt entries cited, without tags or fusion partners. Where a name states a change or a piece, a line headed by the entry shows the natural chain unless it says otherwise.
UniProt Q60932: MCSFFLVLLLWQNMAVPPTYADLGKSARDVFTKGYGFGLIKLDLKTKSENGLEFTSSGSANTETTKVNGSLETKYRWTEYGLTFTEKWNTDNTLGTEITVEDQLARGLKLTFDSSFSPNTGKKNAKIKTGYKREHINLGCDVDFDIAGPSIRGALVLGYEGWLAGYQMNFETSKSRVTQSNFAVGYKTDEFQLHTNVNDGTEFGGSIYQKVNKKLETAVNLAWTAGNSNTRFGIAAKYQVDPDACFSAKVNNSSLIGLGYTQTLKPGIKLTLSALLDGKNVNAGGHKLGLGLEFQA
UniProt P11881: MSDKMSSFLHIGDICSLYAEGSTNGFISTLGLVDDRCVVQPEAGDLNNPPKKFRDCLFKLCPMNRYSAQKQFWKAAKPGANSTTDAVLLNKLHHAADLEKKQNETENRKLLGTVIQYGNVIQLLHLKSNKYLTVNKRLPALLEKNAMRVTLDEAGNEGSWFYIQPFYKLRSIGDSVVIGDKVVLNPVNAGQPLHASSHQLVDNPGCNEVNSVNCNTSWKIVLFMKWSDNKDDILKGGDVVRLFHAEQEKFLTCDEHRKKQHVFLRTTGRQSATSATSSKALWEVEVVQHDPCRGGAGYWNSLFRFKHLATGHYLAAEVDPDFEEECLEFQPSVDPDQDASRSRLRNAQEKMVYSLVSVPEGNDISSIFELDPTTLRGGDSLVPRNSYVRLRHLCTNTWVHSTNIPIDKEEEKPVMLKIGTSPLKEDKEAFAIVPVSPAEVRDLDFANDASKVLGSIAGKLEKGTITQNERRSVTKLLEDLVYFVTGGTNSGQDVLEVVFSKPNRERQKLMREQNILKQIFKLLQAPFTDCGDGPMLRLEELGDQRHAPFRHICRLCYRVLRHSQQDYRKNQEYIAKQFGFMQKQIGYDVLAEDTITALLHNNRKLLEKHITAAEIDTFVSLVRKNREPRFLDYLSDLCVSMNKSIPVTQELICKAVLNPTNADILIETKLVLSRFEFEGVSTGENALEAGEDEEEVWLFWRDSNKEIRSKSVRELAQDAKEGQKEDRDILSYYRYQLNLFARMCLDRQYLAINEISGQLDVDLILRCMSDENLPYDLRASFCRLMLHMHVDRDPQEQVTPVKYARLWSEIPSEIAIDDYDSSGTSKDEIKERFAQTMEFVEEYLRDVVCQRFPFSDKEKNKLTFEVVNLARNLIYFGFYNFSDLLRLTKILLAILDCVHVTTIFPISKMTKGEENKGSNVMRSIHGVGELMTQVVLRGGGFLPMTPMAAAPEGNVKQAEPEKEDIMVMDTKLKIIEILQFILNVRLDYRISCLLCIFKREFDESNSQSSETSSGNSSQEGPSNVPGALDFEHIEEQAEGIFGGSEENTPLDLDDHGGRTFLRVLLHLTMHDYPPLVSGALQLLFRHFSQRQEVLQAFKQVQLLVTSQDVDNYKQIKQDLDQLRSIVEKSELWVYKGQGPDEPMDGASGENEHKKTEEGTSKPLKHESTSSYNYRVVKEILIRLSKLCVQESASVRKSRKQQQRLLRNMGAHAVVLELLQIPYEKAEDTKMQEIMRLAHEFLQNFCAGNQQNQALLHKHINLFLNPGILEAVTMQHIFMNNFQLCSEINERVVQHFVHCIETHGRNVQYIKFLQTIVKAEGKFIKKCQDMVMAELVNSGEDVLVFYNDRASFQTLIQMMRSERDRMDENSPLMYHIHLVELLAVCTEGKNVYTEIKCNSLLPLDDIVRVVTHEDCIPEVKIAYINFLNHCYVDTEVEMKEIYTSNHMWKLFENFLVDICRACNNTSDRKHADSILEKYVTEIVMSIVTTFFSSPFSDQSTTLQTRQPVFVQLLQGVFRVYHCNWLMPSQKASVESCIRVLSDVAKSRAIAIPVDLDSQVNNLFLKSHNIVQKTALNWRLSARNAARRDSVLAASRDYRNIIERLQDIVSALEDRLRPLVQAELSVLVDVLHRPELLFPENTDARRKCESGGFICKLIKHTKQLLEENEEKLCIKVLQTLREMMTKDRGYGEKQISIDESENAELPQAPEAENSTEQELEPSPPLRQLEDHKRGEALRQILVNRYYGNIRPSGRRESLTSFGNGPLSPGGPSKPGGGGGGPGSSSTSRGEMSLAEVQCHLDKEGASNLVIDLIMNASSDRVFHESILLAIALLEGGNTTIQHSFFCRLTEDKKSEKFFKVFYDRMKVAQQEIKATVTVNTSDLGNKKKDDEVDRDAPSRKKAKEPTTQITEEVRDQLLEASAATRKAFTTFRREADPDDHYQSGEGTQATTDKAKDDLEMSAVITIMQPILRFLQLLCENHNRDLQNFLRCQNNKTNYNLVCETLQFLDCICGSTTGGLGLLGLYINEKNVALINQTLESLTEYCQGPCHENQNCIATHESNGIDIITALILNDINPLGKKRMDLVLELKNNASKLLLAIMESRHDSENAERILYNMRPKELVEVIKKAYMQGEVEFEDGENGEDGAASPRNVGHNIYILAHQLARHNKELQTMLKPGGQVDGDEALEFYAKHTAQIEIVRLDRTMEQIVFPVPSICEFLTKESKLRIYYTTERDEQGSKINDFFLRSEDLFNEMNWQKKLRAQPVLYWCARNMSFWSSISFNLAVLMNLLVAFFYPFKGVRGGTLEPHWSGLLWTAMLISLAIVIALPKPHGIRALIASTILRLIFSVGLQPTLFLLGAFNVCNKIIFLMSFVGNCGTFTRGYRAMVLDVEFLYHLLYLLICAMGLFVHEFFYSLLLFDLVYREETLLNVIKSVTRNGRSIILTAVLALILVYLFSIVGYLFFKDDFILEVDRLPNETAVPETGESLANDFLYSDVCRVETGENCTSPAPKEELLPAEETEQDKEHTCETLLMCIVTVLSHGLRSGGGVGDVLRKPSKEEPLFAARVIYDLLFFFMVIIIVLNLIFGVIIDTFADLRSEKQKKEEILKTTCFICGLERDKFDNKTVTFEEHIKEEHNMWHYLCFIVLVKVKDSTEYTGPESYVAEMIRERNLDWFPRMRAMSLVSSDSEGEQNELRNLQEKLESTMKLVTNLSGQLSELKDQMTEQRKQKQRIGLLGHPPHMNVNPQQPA

The target of the assay is voltage dependent anion channel 1 (VDAC1) (mouse (endogenous in HT22)) (UniProt Q60932). Nature of the assay: proximity ligation; in situ Duolink PLA on fixed, permeabilised HT22 cells with anti-InsP3R1 and anti-VDAC1 primary antibodies; control cells, 1 μM AβO for 23 h, 10 μM Tac, and Tac plus AβO; PLA puncta counted.

Results are given in words; binding and its absence hold for the method and conditions named. Binding seen in cells or lysates may run through a third protein. A result given as binding can be weak or reduced; the word gives no strength.

Regarding “inositol 1,4,5-trisphosphate receptor 1 (InsP3R1) (from UniProt P11881 1-2749)”, the binding entry is recorded as “binds”.
